According to the supplement of paper PMC10849652:
This is one part of the list.

Sequences of proteins named here, by UniProt entry; tags and fusion partners are left off. A change or cut given only in a name is not applied to a line headed by its entry.
UniProt Q14CW9: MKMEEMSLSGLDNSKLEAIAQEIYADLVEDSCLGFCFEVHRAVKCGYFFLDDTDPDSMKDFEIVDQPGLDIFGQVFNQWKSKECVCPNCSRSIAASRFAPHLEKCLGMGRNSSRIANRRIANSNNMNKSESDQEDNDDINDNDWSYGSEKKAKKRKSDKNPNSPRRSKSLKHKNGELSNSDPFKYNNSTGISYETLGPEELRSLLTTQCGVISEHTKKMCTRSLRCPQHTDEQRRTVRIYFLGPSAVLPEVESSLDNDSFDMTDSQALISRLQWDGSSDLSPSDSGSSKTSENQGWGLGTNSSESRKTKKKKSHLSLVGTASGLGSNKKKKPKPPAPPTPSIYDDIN
UniProt Q8NCR0: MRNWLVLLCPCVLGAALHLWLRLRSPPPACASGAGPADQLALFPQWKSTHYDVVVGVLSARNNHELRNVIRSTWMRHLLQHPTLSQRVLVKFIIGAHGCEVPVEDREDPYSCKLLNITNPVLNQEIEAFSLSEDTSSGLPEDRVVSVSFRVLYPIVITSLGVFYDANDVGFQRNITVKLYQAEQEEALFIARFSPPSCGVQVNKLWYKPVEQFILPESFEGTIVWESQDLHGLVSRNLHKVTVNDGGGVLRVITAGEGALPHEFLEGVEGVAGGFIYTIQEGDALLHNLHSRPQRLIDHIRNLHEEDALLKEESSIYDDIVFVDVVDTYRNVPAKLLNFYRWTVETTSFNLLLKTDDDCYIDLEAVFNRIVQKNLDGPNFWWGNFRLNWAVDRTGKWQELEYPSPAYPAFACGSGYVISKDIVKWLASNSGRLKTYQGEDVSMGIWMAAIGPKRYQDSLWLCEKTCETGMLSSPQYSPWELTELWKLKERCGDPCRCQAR
UniProt Q96FH0: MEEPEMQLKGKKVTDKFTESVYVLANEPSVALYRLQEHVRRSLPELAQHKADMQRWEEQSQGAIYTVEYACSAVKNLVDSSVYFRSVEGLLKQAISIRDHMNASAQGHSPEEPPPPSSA
UniProt Q96L58: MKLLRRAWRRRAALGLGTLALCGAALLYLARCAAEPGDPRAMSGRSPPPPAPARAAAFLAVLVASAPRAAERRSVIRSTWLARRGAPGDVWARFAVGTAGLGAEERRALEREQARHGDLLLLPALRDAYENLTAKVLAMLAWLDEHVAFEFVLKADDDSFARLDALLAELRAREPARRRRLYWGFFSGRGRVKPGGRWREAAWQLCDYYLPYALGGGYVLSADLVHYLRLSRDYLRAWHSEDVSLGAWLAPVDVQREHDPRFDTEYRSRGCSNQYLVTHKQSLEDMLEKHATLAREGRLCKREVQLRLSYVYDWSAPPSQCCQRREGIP
UniProt P54252: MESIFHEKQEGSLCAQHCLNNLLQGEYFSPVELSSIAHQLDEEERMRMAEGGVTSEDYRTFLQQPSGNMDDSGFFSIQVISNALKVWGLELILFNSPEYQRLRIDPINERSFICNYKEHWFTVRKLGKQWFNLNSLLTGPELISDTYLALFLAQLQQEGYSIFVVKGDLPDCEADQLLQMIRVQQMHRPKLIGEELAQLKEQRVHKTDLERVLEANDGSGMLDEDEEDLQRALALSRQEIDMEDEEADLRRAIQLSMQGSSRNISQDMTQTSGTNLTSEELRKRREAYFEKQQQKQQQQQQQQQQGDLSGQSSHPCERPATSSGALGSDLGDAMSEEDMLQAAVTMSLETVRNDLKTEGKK
UniProt O60513: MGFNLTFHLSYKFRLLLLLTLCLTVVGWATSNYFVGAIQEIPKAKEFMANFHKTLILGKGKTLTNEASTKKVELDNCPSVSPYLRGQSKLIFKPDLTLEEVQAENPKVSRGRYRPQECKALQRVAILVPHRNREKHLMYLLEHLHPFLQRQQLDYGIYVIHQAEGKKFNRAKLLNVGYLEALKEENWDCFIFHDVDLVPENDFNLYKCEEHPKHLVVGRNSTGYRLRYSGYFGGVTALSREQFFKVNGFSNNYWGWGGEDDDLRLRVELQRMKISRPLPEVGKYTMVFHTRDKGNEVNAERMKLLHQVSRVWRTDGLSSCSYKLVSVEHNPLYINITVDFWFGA
UniProt Q9NZS9: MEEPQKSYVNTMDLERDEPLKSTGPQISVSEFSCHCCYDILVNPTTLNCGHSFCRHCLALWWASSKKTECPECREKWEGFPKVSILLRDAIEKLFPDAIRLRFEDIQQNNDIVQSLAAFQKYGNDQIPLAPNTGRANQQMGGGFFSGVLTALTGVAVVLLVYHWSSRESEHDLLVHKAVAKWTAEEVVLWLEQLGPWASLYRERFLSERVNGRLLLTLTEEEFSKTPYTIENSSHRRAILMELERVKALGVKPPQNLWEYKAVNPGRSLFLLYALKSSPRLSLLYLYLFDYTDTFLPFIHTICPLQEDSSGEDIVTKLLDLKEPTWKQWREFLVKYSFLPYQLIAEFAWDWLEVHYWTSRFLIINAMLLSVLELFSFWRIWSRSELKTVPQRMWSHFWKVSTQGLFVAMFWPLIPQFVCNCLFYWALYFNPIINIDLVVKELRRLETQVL
UniProt Q9UQB8: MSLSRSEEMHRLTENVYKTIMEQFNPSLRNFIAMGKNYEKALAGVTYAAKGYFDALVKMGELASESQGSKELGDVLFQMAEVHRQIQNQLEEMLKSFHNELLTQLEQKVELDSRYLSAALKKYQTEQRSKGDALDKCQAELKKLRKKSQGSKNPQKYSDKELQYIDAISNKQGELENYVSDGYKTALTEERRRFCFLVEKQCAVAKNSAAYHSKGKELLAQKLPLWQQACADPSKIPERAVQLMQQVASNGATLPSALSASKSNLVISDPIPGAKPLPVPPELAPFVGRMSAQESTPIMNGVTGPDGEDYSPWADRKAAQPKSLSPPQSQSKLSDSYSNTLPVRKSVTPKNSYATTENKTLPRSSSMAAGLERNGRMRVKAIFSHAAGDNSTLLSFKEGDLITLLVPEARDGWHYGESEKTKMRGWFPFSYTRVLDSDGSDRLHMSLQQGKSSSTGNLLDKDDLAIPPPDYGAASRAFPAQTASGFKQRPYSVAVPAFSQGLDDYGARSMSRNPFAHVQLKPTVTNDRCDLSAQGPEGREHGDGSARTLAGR
UniProt Q9H2G9: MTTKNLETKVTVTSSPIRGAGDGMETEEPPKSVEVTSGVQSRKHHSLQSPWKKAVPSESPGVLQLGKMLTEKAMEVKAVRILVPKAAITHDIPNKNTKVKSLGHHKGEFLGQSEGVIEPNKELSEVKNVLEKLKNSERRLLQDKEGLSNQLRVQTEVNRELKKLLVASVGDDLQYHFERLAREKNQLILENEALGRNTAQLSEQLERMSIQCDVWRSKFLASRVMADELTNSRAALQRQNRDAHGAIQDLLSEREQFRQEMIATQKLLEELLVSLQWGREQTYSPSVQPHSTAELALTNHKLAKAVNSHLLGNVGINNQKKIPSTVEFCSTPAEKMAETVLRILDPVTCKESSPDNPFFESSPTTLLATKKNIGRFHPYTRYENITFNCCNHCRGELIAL
UniProt Q7Z5W3: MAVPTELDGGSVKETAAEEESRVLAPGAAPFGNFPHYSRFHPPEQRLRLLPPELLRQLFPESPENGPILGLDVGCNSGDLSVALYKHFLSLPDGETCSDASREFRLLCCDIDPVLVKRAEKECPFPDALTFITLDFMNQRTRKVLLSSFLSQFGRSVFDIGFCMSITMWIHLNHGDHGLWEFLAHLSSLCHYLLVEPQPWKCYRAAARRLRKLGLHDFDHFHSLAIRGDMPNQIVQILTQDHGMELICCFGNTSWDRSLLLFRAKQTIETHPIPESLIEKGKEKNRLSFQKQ
UniProt Q96IK1: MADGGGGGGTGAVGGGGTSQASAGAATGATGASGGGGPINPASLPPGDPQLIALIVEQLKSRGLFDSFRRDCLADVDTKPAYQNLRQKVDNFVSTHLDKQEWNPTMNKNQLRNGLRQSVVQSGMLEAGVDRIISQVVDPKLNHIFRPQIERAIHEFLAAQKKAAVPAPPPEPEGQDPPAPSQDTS
UniProt Q8IXM2, whole entry, looked up: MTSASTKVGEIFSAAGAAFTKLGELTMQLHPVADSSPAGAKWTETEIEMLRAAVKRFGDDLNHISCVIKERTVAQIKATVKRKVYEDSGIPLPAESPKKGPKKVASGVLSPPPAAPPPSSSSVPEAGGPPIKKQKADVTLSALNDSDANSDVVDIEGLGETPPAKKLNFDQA
UniProt O15169, whole entry, looked up: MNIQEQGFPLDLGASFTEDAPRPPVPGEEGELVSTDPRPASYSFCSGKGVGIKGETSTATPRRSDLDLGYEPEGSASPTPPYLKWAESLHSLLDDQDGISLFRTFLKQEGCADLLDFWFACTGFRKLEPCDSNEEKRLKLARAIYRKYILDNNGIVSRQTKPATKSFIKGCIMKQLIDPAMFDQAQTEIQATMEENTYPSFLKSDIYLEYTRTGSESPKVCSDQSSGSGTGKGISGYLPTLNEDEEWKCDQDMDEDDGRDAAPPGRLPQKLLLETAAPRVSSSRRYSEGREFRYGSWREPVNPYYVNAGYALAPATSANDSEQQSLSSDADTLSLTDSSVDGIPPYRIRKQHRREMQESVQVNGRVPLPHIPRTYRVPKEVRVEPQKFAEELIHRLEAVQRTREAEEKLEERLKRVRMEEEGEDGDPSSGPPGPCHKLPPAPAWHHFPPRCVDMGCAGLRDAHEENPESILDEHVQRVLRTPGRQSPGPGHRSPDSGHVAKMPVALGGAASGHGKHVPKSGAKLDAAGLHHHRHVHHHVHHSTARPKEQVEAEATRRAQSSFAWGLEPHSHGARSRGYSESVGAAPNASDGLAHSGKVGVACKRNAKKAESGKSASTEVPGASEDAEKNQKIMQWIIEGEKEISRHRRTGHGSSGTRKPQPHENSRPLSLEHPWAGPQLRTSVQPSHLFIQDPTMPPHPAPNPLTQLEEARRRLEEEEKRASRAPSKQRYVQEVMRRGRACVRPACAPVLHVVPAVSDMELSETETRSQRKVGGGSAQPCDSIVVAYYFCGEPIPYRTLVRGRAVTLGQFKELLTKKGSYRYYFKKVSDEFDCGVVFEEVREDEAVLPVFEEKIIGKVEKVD
UniProt Q9H6S1, whole entry, looked up: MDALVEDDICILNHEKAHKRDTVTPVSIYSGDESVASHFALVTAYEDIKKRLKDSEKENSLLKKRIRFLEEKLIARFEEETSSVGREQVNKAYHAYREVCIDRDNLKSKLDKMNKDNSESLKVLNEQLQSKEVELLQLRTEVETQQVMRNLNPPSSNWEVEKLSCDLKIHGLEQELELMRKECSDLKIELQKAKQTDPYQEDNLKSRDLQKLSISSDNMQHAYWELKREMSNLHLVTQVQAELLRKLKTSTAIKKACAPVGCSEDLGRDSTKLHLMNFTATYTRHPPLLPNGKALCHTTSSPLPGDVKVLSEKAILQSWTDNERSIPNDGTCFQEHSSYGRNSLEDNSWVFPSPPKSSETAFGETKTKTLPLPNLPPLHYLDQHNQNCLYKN
UniProt O60909: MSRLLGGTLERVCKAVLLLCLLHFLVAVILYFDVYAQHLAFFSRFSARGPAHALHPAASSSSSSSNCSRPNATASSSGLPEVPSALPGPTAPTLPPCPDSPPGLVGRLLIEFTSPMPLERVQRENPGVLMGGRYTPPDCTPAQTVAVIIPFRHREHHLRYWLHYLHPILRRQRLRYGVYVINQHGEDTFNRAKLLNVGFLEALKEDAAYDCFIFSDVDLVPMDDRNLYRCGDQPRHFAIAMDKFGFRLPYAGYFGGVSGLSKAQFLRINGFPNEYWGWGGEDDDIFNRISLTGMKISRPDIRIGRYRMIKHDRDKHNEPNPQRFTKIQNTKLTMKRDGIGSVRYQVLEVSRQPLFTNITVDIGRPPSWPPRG
UniProt O00499: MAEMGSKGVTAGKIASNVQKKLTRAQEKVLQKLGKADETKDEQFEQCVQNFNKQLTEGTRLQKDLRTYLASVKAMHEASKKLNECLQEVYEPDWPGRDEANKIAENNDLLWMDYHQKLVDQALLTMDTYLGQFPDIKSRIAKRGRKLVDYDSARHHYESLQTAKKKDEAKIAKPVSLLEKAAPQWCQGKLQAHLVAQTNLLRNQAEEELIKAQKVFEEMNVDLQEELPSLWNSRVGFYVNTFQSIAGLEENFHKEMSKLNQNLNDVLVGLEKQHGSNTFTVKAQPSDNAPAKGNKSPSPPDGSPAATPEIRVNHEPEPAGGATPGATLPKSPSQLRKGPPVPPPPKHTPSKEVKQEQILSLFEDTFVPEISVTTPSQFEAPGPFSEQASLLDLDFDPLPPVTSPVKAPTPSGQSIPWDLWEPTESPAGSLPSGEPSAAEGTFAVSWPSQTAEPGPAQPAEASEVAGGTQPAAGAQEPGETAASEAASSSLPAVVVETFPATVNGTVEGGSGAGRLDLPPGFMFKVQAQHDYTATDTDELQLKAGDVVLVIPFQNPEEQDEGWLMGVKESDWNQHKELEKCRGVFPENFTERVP

Assays:
Assay in all cases: log2 fold change, soluble protein after heating vs DMSO (PISA); higher = thermal stabilisation; K562 cells, 10 uM, 30 min; active = over 0.2 and 3.5 SD of the protein, either way, in both replicates (recomputed)
[1] = compound: CN1CCN(c2nc(C3=C(c4c[nH]c5ccccc45)C(=O)NC3=O)c3ccccc3n2)CC1 [sotrastaurin]
In short: (§1)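 K562 cells at 2×10^6 cells/mL were exposed to 10 μM compound for 30 min, then aliquots were heated for 3 min across 48°C-58°C, pooled, and extracted in PBS containing 0.5% NP-40 at 4°C. The supernatant after 21,000xg for 90 min was taken as soluble protein and measured by TMTpro 16plex LC-MS/MS with channel sums equalised. Thermal stability is reported relative to control samples, with values from duplicates. Fold changes are given on a log2 scale.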

[2] = compound: CNC(=O)C1=CC=CC=C1NC2=NC(=NC=C2Cl)NC3=C(C=C(C=C3)N4CCOCC4)OC
In short: as §1

[3] = compound: CNCc1ccc(-c2[nH]c3cc(F)cc4c3c2CCNC4=O)cc1 [rucaparib]
In short: as §1

[4] = compound: COC(=O)N[C@@H](C)CNc1nccc(-c2cn(C(C)C)nc2-c2cc(Cl)cc(NS(C)(=O)=O)c2F)n1 [encorafenib]
In short: as §1

[5] = compound: COC1=CC=C(C=C1)CN2C=CC3=C2C=C(C=C3)C(=O)NO
In short: as §1

[6] = compound: CON(C)C(=O)N1N=C(c2cc(F)ccc2F)S[C@@]1(CCCN)c1ccccc1 [filanesib]
In short: as §1

[7] = compound: COc1cc(C(=O)O)ccc1NC(=O)[C@@H]1N[C@@H](CC(C)(C)C)[C@](C#N)(c2ccc(Cl)cc2F)[C@H]1c1cccc(Cl)c1F [idasanutlin]
In short: as §1

[8] = compound: COc1cc(Nc2ncc3c(n2)-c2ccc(Cl)cc2C(c2c(F)cccc2OC)=NC3)ccc1C(=O)O [alisertib]
In short: as §1

[9] = compound: COc1cc2ncnc(Nc3ccc(F)c(Cl)c3)c2cc1OCCCN1CCOCC1 [gefitinib]
In short: as §1

[10] = compound: COc1cccc2cc(-c3nc([C@H]4CC[C@H](C(=O)O)CC4)n4ncnc(N)c34)[nH]c12
In short: as §1

[11] = compound: CN1CCc2c(c3ccccc3n2Cc2ccc(C(=O)NO)cc2)C1 [Tubastatin A]
In short: as §1

[12] = compound: CNC(=O)c1ccc(Nc2ncc(C(F)(F)F)c(NCc3nccnc3N(C)S(C)(=O)=O)n2)cc1 [defactinib]
In short: as §1

[13] = compound: COC(=O)[C@H](CCSC)NC(=O)C1=C(C=C(C=C1)NC[C@H](CS)N)C2=CC=CC=C2
In short: as §1

[14] = compound: COc1cc2nc(-c3cc(F)ccc3O)nc(N[C@@H]3CNC[C@H]3C(C)(C)O)c2cc1OC
In short: as §1

[15] = compound: CS(=O)(=O)CCNCc1ccc(-c2ccc3ncnc(Nc4ccc(OCc5cccc(F)c5)c(Cl)c4)c3c2)o1 [lapatinib]
In short: as §1

[16] = compound: CS(=O)(=O)N1CCN(Cc2cc3nc(-c4cccc5[nH]ncc45)nc(N4CCOCC4)c3s2)CC1 [pictilisib]
In short: as §1

[17] = compound: CO[C@H]1C[C@@H]2CC[C@@H](C)[C@@](O)(O2)C(=O)C(=O)N2CCCC[C@H]2C(=O)O[C@H]([C@H](C)C[C@@H]2CC[C@H](n3cnnn3)[C@H](OC)C2)CC(=O)[C@H](C)/C=C(\C)[C@@H](O)[C@@H](OC)C(=O)[C@H](C)C[C@H](C)/C=C/C=C/C=C/1C [zotarolimus]
In short: as §1

[18] = compound: CN1CC[C@H](c2c(O)cc(O)c3c(=O)cc(-c4ccccc4Cl)oc23)[C@H](O)C1 [alvocidib]
In short: as §1

Measured: log2 fold change

ATXN7L3 isoform 2 (UniProt Q14CW9)
active: [3] 0.669
inactive: [1] 0.098 | [2] -0.038 | [4] 0 | [5] -0.158 | [6] -0.02 | [7] 0.193 | [8] -0.191 | [9] 0.052 | [10] 0.035

B3GALNT2 (UniProt Q8NCR0)
inactive: [1] 0.08 | [11] -0.052 | [2] -0.125 | [12] 0.053 | [3] -0.059 | [4] 0.029 | [13] 0.06 | [5] 0.018 | [6] 0.003 | [8] 0.075 | [14] 0.244 | [10] 0.046 | [15] -0.093 | [16] -0.045

BORCS8 (UniProt Q96FH0)
inactive: [11] -0.059 | [3] 0.341 | [4] -0.362

B3GALT6 (UniProt Q96L58)
inactive: [2] -0.01 | [5] -0.028

BRCA1 isoform 7 (UniProt P38398)
inactive: [1] 0.126 | [2] -0.254 | [12] -0.159 | [13] 0.15 | [5] -0.382 | [6] 0.102 | [8] -0.088 | [14] 0.218 | [10] -0.15 | [15] 0.012

BPNT1 (UniProt A6NF51)
inactive: [11] -0.034 | [2] -0.14 | [12] 0 | [3] -0.06 | [4] 0.047 | [13] -0.019 | [5] 0.042 | [8] -0.202 | [10] 0.065

BCL7C (UniProt Q8WUZ0)
inactive: [8] 0.905 | [10] -0.127

ATXN3 isoform 1 (UniProt P54252)
inactive: [11] 0.138 | [2] -0.03 | [12] -0.119 | [3] -0.015 | [4] 0.085 | [13] 0.018 | [5] 0.023 | [17] -0.051 | [7] -0.114 | [8] -0.004 | [14] 0.106 | [9] -0.192 | [10] 0.297 | [15] -0.031 | [16] -0.036

BMP1 (UniProt P13497)
inactive: [2] -0.245

B4GALT4 (UniProt O60513)
inactive: [1] -0.093 | [6] 0.273 | [9] 0.106 | [16] 0.123

BPIFB1 (UniProt Q8TDL5)
inactive: [1] -0.071 | [3] -0.015 | [4] 0.137 | [6] -0.093 | [9] 0.373

BFAR (UniProt Q9NZS9)
inactive: [12] 0.023 | [13] 0.041 | [8] 0.037 | [14] -0.351 | [10] -0.105 | [15] 0.017

BAHD1 (UniProt Q8TBE0)
inactive: [2] -0.061 | [3] -0.133 | [4] 0.229 | [8] 0.094 | [14] -0.032 | [9] 0.003 | [10] -0.008 | [15] 0.03 | [16] 0.168

BAIAP2 isoform 4 (UniProt Q9UQB8)
inactive: [1] 0.147 | [11] 0.288 | [6] 0.302 | [17] -0.184

BLZF1 (UniProt Q9H2G9)
inactive: [1] -0.146 | [18] -0.087 | [6] 0.281 | [17] 0.183

BCDIN3D (UniProt Q7Z5W3)
inactive: [18] -0.14 | [11] 0.033 | [3] 0.006 | [4] -0.066 | [17] 0.12 | [7] -0.004

ATXN2L (UniProt H3BUF6)
inactive: [3] 0.184 | [4] -0.026 | [5] 0.07 | [8] -0.175 | [14] 0.062 | [9] 0.032 | [10] -0.056 | [15] 0.066 | [16] -0.359

BOD1 (UniProt Q96IK1)
inactive: [2] -0.077 | [8] 0.034 | [10] 0.029 | [16] -0.025

BNIP2 (UniProt H7C096)
inactive: [2] -0.078 | [3] -0.119 | [4] 0.235 | [8] 0.024 | [10] -0.021

BAP18 isoform 3 (UniProt Q8IXM2)
inactive: [11] 0.301 | [2] -0.129 | [8] -0.033 | [10] 0.12 | [16] -0.093

BORA (UniProt Q6PGQ7)
inactive: [1] -0.218 | [6] 0.006

BAZ1B (UniProt Q9UIG0)
inactive: [1] -0.02 | [18] 0.038 | [12] -0.006 | [3] -0.013 | [4] 0.103 | [13] 0.023 | [5] 0.054 | [6] 0.269 | [17] -0.172 | [8] 0.082 | [9] 0.008 | [10] -0.161 | [16] -0.291

AXIN1 (UniProt O15169)
inactive: [12] -0.231 | [13] 0 | [16] 0.111

ATRX (UniProt P46100)
inactive: [18] -0.089 | [17] 0.042 | [7] 0.149 | [16] -0.039

AZI2 (UniProt Q9H6S1)
inactive: [1] -0.046 | [11] -0.078 | [12] 0.018 | [3] -0.12 | [4] 0.012 | [13] -0.093 | [6] 0.006 | [9] 0.227
active: [2] 0.453

BCL7C isoform 2 (UniProt Q8WUZ0)
inactive: [1] 0.03 | [18] -0.146 | [2] -0.058 | [6] 0.035 | [17] 0.072 | [8] -0.166 | [9] -0.074 | [10] 0.057

B4GALT2 isoform 3 (UniProt O60909)
inactive: [1] -0.191 | [6] 0.184

BIN1 (UniProt O00499)
inactive: [12] 0.06 | [13] 0.145 | [8] -0.146 | [10] 0.012

BRAF, A0A2R8Y8E0
inactive: [11] -0.084 | [2] 0.143 | [5] -0.008 | [7] 0.221 | [8] -0.054 | [9] -0.027 | [10] -0.326

Two consecutive entries from above:
BAP18 isoform 3 (UniProt Q8IXM2)
inactive: [11] 0.301 | [2] -0.129 | [8] -0.033 | [10] 0.12 | [16] -0.093

BORA (UniProt Q6PGQ7)
inactive: [1] -0.218 | [6] 0.006
